The results in this text go back to PMC6994103 (PLoS Neglected Tropical Diseases, 2020).

One experiment concerns VERO cells. The experiment can be described thus: Toxicity assay in VERO cells (gentian violet staining). Format: cell-based, African green monkey. The following applies: IC50 in VERO cells / IC50 in trypomastigotes (Y strain). The method, then:
VERO cells (African green monkey Kidney, ATCC CCL-81) were cultured in MEM medium supplemented with 10% heat inactivated FCS, 0.15% (w/v) NaHCO3, 100 U/mL penicillin and 100 U/mL streptomycin at 37°C in 5% CO2.
The toxicity of the compounds was determined in VERO cells by the gentian violet staining assay. Briefly, the cells (1 x10^4 cells/well) were incubated in 96-well plates with the indicated compound or dimethyl sulfoxide (DMSO) as negative control and maintained at 37° C for 24 h. Then the cells were fixed for 15 min, and stained with 0.5% gentian violet. The absorbance was measured at 570 nm. The selectivity index (SI) was calculated for each CV analogue as the ratio between the IC50 obtained in mammalian cells and the IC50 in trypomastigotes. For the combined treatment, the results were presented as percentage of untreated cells.

In experiment [1] the test system is T. cruzi trypomastigotes Y strain. Nature of the experiment: Trypanocidal activity in trypomastigotes, Y strain. Format: cell-based. The settings on record: Trypanosoma cruzi, 24 h, read-out: trypanocidal IC50, trypomastigotes. On the procedure: VERO cells (5 x10^4 per well) were infected with trypomastigotes (2.5 ×10^5 per well) for 4 h. After this period, the infected cells were washed twice with phosphate-buffered saline (PBS), the MEM medium was replaced, and the cells were kept in culture at 37°C, 5% CO2. In order to obtain intracellular amastigotes, the cells were lysed 4 days after infection using a cell scraper, collected, washed twice with PBS (or MEM) and counted using a hemocytometer. Trypomastigotes were obtained from infected VERO cells as previously described.
Epimastigotes of T. cruzi were cultured as described above, in 24-wells plate at a start density of 0.5 x10^7 cells/mL in BHT medium. Parasites´ growth was evaluated at different concentrations of BZL, CV and CV structural analogues, and parasite proliferation was determined after 48 h. […] Growth was determined by counting in a Neubauer chamber and viability assays by using “Cell Titer 96 Aqueous One Solution Cell Proliferation Assay (MTS)” (Promega, Madison, WI, USA) according to the manufacturer’s instructions. Amastigotes were fixed with methanol, stained and mounted with Vectashield with DAPI (Vector Laboratories, Burlingame, CA, USA), and then the non-lysed cells were counted by using fluorescence microscopy.

As for `CN1CCC(=C2c3ccccc3C=Cc3ccccc32)CC1` [Cyproheptadine], in the experiment with VERO cells, the “Selectivity Index” value came out at 9.1.
Take `Cc1cc2c(s1)Nc1ccccc1N=C2N1CCN(C)CC1` [Olanzapine]: in experiment [1], the IC50 was over 50 µM.
